PubChem BioAssay AID1259424, University of Nebraska Medical Center – 2018

Screen: 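Rank knockdowns across the genome by resemblance to the KSR1 depletion profile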 (primary screen)
Cell system: human HCT116 colon cancer cells
Knock-down reagent: siRNA pool against human genes, 50 nM
Measured: 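Log2 levels of six mRNAs (branched-DNA multiplex), adjusted by two reference genes and the non-targeting median, then scored against the average KSR1 knockdown pattern as Pearson r and euclidean distance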
Direction: mean correlation with KSR1 profile: higher = expression change more like KSR1 knockdown
The deposit covers about 14,000 reagents; shown is an unselected part. 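Higher correlation or smaller distance means closer resemblance to KSR1 loss; control wells, including KSR1 knockdowns, recur on many plates.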 Further read-outs or replicates are left out here. Not stated in the record: the time to read-out.

| Target gene | mean correlation with KSR1 profile |
| --- | --- |
| HSBP1 | 0.547 |
| CUEDC2 | -0.28 |
| RARG | 0.31 |
| PRAMEF2 | -0.124 |
| REV1 | 0.239 |
| NDUFS3 | -0.574 |
| DENR | -0.526 |
| DMRTC1 | -0.667 |
| DCAF11 | -0.106 |
| RPS16 | -0.222 |
| PDE3B | 0.0122 |
| RBM41 | -0.119 |
| NELL1 | 0.385 |
| ZNF142 | 0.0527 |
| SLC10A7 | 0.76 |
| NEUROG2 | -0.454 |
| RRN3 | -0.471 |
| CMPK1 | 0.0899 |
| GNL3L | -0.587 |
| MCM8 | 0.4 |

A few values from the entries so far.
DCAF11, mean correlation with KSR1 profile = -0.106
Under “mean correlation with KSR1 profile”, DMRTC1 is entered as -0.667
